# Measured values from PubChem BioAssay AID1347076 (National Center for Advancing Translational Sciences (NCATS), 2019).
# Out of some 400,000 compounds screened, about 13,000 (3.2%) were called active. This list was built around the results that the source calls inconclusive (neither active nor inactive); the mix of calls is not that of the screen. Calls come from the whole dose curve; as a rule, active = well fitted cell-killing curve with a large enough effect; inconclusive = small, poorly fitted or top-dose-only effect, or effect the other way; inactive = flat fitted curve, though single readings scatter. Where the call is inconclusive, the potency comes from a doubtful curve fit.
# Assay: qHTS assay for MDR1-selective chemotherapeutics: Primary screen using the drug-selected MDR subline cells KB-V1; note: nearly all actives have a fitted effect of over 60% in size
# Settings: KB-V1 MDR cells viability, CellTiter-Glo, 72 h; activity change, negative = cytotoxicity: at 46.1 µM (top of the series)
# Procedure, shortened: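 Cytotoxicity via CellTiter-Glo luminescence after 72 h compound exposure at 37 degrees C. Cells: drug-selected KB-V1 line, DMEM phenol-red free plus 10% FBS. Compounds tested at multiple concentrations; normalized data fitted to concentration-effect curves.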
# % is set by controls: 0 for no effect and ±100 for the full control effect; potency is the fitted concentration of half-maximal effect.
Structure (SMILES),"activity change, negative = cytotoxicity",Potency
COc1cccc(C(c2nnnn2Cc2ccccc2)N2CCC3(CC2)C(=O)NCN3c2ccccc2)c1OC (stereo unspecified),inactive: -15.3%,
Cn1c(NN=O)nc2ccccc21,inactive: -11%,
CCC12CN3CC(CC)(CN(C1)C3c1c(C)[nH]c(=O)[nH]c1=O)C2=O (stereo unspecified),,"inconclusive: 11.6 µM [rising, partial curve, poor fit]"
CCCNS(=O)(=O)c1ccc(OCC(=O)N2CCN(Cc3ccccc3)CC2)cc1,,active: 8.2 µM
N#Cc1ccc(Cn2cc(C(=O)c3ccco3)c3ccccc32)cc1,,active: 18.4 µM
O=C(Nc1ccc(F)cc1)N1Cc2ccccc2-n2nncc2C1,inactive: 0%,
CCCCn1c(=O)c(C(=O)Nc2ccccc2)c(O)c2ccccc21,,active: 13 µM
Cn1c2ccccc2c2c(C(=O)N3CCC4(CC3)OCCO4)cn(C3CCCCC3)c(=O)c21,,"inconclusive: 29.1 µM [cytotoxic, single point]"
O=c1c2ccccc2nc(Cc2ccccc2)n1-c1cccc(O)c1,,"inconclusive: 10.3 µM [cytotoxic, partial curve]"
CCc1ccc(NC(=O)C(C)OC(=O)c2c(C)nn(Cc3ccccc3)c2Cl)cc1 (stereo unspecified),,"inconclusive: 18.4 µM [cytotoxic, partial curve]"
Cc1cccn2c(=O)c3c(nc12)N1CCC(Cc2ccccc2)CC1C1(C3)C(=O)N(C)C(=O)N(C)C1=O (stereo unspecified),,"inconclusive: 25.9 µM [cytotoxic, single point]"
CCOc1cc2c(cc1OCC)-n1cccc1C(c1ccc(C)cc1C)NC2 (stereo unspecified),,"inconclusive: 20.6 µM [cytotoxic, single point]"
Cc1cccc(N2C(=O)NC(=O)/C(=C\c3cccn3-c3ccc(Cl)cc3)C2=O)c1,,active: 18.4 µM
C=C1C(=O)O[C@H]2C[C@@H](C)[C@@H]3C=CC(=O)[C@@]3(C)C[C@H]12,,"inconclusive: 3.26 µM [cytotoxic, partial curve, poor fit]"
Cc1cccc(-n2c(/C=C/c3ccc([N+](=O)[O-])o3)nc3ccccc3c2=O)c1,,active: 10.3 µM
Cc1cccc(C)c1-n1nnnc1C(c1cccc2ccccc12)N1CCC2(CC1)C(=O)NCN2c1ccccc1 (stereo unspecified),,"inconclusive: 14.6 µM [cytotoxic, partial curve]"
CCOc1ccc2nc(N=Nc3c(O)[nH]c(=S)[nH]c3=O)sc2c1,inactive: -7.21%,
Nc1ccc2ccccc2c1,inactive: 22.1%,

Structure (SMILES),"activity change, negative = cytotoxicity",Potency
C[C@@H]1CC[C@H]2[C@@H](C)C(=O)O[C@@H]3O[C@@]4(C)CC[C@@H]1[C@]32OO4,,"inconclusive: 0.92 µM [cytotoxic, full curve]"
COC(=O)C1=C(c2cccc(OCc3ccccc3)c2)C[C@@H]2CC[C@H]1N2C(=O)NCc1cc(C)oc1C(F)(F)F,,"inconclusive: 20.6 µM [cytotoxic, single point]"
COC(=O)C1=C(c2ccc(C(C)=O)cc2)C[C@@H]2CC[C@H]1N2C(=O)NCc1ccc(F)cc1,,"inconclusive: 29.1 µM [rising, single point]"
CC[C@@H](O)C[C@H]1CCC[C@@]2(C[C@@H]3OC(=O)/C=C/[C@@](C)(O)[C@@H](O)[C@H](C)[C@@H](O)[C@H](OC4CCC(N(C)C)C(C)O4)[C@@H](O)[C@](C)(O)CCCCC/C=C/[C@@H]4CC(C)(C)O[C@@]4(O)C[C@H](O2)[C@H]3C)O1 (stereo partly specified),,active: 0.0731 µM
COc1ccc(C(=O)CN2CCOCC2)cc1,inactive: 0.929%,
CC(C)N1C(=O)NC(=O)C2(Cc3cc([N+](=O)[O-])ccc3N(C)C2c2ccccc2)C1=O (stereo unspecified),,"inconclusive: 16.4 µM [cytotoxic, single point]"
O=c1cccc2n1CC1CC2CN(C(c2cccc(F)c2)c2sc3ncnn3c2O)C1 (stereo unspecified),,"inconclusive: 29.1 µM [rising, single point]"
O=c1[nH]c2ccccc2n1C1CCN(C(c2nnnn2Cc2ccccc2)C2CC2)CC1 (stereo unspecified),,"inconclusive: 29.1 µM [cytotoxic, single point]"
Cc1cc(C)nc(N2Cc3ccccc3C2=N)n1,inactive: -28.8%,
CC(=O)c1cn(Cc2ccc(F)cc2)c2ccccc12,,"inconclusive: 8.2 µM [cytotoxic, partial curve]"
COc1ccc2c(c1)/C(=C/c1cnc[nH]1)C(=O)N2,,active: 10.3 µM
Cc1cc(N2CCOCC2)nc2ccc(NC(=O)CCC(=O)N3CCC4(CC3)OCCO4)cc12,,"inconclusive: 13 µM [cytotoxic, partial curve]"
FC(F)(F)c1ccccc1CCN1CCNCC1,,"inconclusive: 29.1 µM [rising, single point]"
COc1ccc(Cl)cc1C(=O)C1CCCN(Cc2cnc(C)s2)C1 (stereo unspecified),,"inconclusive: 11.6 µM [cytotoxic, partial curve, poor fit]"
COc1ccc(C[C@H]2NC[C@H](O)[C@H]2OC(C)=O)cc1,,active: 0.411 µM
C=CCn1c(O)c(C=NCCN(C)C)c(=O)[nH]c1=O,,"inconclusive: 29.1 µM [rising, single point]"
O=c1[nH]c(=O)n(Cc2ccc(F)cc2)c(O)c1C=NCCCN1CCOCC1,,"inconclusive: 18.4 µM [rising, partial curve, poor fit]"
COc1ccc(-n2nnnc2C(c2ccccc2OC(F)(F)F)N2CCC3(CC2)C(=O)NCN3c2ccccc2)cc1 (stereo unspecified),,"inconclusive: 23.1 µM [cytotoxic, single point]"

# Complete entries from above:
# COC(=O)C1=C(c2cccc(OCc3ccccc3)c2)C[C@@H]2CC[C@H]1N2C(=O)NCc1cc(C)oc1C(F)(F)F reads Potency: inconclusive: 20.6 µM [cytotoxic, single point]
# O=c1[nH]c2ccccc2n1C1CCN(C(c2nnnn2Cc2ccccc2)C2CC2)CC1 (stereo unspecified) reads Potency: inconclusive: 29.1 µM [cytotoxic, single point]
